The target in test [1] is YAP (human (endogenous in HCT116)) (UniProt P46937). The experiment in a line: co-IP; endogenous immune complexes precipitated from lysates (mild lysis buffer, washed four times) of shCTRL and shABHD5 HCT116 cells, immunoblot of the partner; YAP/TEAD1 also compared in PNPLA2-knockdown cells.
Test [2] has as its target SET1A (human (endogenous in HCT116)) (UniProt O15047). The experiment in a line: co-IP; endogenous proteins precipitated from nuclear lysates / nuclear protein of control (shCTRL) and ABHD5-knockdown (shABHD5) HCT116 cells with an antibody to the bait (mouse IgG as control), western blot of the partner; β-Catenin/TCF4 also compared in PNPLA2-knockdown cells. (A western blot detects proteins with antibodies after separation by electrophoresis.)

By UniProt entry, the sequences of proteins in these tests, tags left out.
UniProt O15047: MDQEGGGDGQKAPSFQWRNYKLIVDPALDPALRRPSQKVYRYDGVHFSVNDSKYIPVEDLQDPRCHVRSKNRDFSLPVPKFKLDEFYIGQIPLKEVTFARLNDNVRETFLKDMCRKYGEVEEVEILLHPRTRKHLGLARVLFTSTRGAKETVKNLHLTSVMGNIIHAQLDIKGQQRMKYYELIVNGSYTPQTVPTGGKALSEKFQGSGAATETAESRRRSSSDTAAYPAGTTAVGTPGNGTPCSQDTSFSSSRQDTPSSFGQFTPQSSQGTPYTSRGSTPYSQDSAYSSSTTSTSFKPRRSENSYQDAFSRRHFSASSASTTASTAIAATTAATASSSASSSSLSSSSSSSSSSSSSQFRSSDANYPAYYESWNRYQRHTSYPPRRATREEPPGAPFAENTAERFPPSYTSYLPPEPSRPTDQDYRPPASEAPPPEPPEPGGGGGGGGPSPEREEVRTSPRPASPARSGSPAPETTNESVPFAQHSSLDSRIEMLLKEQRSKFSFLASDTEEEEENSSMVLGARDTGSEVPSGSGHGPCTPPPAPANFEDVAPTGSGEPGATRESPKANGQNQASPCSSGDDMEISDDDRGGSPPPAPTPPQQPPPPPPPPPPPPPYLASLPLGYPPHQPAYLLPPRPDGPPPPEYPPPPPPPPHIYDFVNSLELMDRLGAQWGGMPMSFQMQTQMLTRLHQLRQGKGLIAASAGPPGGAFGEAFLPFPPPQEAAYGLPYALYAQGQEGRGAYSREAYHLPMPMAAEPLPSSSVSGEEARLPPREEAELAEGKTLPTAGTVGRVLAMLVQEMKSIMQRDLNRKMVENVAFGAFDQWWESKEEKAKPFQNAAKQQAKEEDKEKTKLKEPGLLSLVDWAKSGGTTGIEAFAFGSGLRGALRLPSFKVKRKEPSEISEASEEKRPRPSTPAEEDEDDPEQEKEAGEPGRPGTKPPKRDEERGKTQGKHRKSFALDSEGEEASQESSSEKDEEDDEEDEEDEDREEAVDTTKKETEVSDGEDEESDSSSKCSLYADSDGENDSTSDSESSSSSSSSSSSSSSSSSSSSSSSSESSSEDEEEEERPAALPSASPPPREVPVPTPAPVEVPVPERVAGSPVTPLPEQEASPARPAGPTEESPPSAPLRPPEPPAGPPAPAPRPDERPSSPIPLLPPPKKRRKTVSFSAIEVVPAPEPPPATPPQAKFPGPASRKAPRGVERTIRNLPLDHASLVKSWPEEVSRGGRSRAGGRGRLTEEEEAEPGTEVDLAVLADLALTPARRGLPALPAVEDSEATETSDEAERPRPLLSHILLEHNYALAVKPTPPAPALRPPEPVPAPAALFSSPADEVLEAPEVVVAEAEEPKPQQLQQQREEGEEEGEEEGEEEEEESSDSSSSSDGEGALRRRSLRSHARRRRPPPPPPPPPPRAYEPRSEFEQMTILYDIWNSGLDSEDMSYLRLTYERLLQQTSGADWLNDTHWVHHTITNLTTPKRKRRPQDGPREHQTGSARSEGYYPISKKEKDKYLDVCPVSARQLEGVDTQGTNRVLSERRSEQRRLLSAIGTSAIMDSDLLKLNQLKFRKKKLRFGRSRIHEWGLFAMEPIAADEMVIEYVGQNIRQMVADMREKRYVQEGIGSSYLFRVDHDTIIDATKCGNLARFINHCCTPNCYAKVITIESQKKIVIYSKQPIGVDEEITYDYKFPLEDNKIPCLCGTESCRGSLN
UniProt O14980: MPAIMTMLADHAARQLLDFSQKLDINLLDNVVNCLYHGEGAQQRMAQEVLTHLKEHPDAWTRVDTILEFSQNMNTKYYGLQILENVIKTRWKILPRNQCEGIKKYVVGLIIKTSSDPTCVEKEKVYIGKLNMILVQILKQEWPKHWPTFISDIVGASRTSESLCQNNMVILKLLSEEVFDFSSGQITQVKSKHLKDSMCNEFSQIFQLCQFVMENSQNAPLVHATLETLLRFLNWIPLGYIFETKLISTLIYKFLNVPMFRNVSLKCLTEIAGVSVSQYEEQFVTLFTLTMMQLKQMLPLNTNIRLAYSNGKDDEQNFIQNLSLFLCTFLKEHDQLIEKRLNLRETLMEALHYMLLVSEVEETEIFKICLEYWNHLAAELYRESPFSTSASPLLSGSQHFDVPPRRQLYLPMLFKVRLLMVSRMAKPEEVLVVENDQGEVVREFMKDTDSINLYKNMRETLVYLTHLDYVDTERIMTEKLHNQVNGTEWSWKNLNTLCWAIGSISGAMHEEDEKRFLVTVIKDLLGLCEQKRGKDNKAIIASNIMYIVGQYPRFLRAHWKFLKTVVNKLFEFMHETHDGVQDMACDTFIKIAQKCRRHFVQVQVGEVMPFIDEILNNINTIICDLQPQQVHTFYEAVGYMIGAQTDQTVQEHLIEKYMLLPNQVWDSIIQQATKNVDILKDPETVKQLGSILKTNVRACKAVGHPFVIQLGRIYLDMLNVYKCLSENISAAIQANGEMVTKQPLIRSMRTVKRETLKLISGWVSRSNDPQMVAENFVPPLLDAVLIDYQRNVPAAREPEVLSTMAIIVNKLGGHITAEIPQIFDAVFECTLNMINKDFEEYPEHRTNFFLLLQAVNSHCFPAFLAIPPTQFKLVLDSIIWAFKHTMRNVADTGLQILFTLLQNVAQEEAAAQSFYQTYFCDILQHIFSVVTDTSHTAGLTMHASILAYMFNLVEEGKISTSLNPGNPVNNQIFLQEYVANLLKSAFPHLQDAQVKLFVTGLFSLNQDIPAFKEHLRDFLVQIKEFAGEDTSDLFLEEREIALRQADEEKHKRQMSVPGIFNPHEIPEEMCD

In test [3] the target is DPY30 (human (endogenous in HCT116)) (UniProt Q9C005). Description: co-IP; endogenous immune complexes precipitated from lysates (mild lysis buffer, washed four times) of shCTRL and shABHD5 HCT116 cells, immunoblot of the partner; YAP/TEAD1 also compared in PNPLA2-knockdown cells.

These are yes or no findings as the source states them, for the method shown. In cells and extracts the contact can be indirect. Some entries that bind do so weakly or less than the wild type.

For the substance CRM1 (from UniProt O14980 1-1071), the binding result in test [1] is recorded as “binds”.

In the case of YAP (from UniProt P46937 1-504), the binding entry in test [2] and in test [3] was “binds” in each case.

Values taken from publication PMC8602706.
